System: U2OS cells
Experiment: Level of ectopic E2F-1 protein after transfection
Assay type: cell-based
Conditions: 1 μg transfected into U2OS cells; compared to wild-type E2F-1

Row | Substance | level of ectopic protein
1 | KKK: methylation-defective E2F-1 protein containing the mutations R109K, R111K and R113K | expressed at increased levels
2 | KK: methylation-defective E2F-1 protein containing the mutations R111K and R113K | expressed at increased levels

— patent publication US8841274B2, “Protein arginine N-methyltransferase-5 method of cancer treatment” (priority 2009, dated 2014)
